Here are results for one sequence from article PMC7279889.

The exact form of at least one protein or probe is not confirmed. The comparison behind a weaker result is the experiment's own reference, which may not be listed here.

The target in this data set is FMRP RGG domain (Mus musculus) (UniProt P35922). The data set can be described thus: fluorescence polarization. As to conditions: 150 mM LiCl, less RNA bound, affinity stated as unchanged (author response); FP: 10 mM Tris-HCl (pH not stated), 150 mM KCl or LiCl, 5% glycerol, 10 nM RNA, protein 2 nM-1 uM, 5 min at 25 C, read at 26-27 C; recombinant protein; residues 478-614; label: 3' 6-FAM. For orientation: Fluorescence polarisation rises when a labelled molecule tumbles more slowly, as on binding a larger partner.

As for “GGGAGGGAGGGAGGGUA [rG4 in LiCl (quadruplex disrupted)]”, the binding result is reported as “binds more weakly”.
